# PubChem BioAssay AID743266 (National Center for Advancing Translational Sciences (NCATS), 2014)
# Amino acid sequences for entries named in this document (tags omitted). A change or cut given only in a name is not applied to a line headed by its entry.
# UniProt Q03431: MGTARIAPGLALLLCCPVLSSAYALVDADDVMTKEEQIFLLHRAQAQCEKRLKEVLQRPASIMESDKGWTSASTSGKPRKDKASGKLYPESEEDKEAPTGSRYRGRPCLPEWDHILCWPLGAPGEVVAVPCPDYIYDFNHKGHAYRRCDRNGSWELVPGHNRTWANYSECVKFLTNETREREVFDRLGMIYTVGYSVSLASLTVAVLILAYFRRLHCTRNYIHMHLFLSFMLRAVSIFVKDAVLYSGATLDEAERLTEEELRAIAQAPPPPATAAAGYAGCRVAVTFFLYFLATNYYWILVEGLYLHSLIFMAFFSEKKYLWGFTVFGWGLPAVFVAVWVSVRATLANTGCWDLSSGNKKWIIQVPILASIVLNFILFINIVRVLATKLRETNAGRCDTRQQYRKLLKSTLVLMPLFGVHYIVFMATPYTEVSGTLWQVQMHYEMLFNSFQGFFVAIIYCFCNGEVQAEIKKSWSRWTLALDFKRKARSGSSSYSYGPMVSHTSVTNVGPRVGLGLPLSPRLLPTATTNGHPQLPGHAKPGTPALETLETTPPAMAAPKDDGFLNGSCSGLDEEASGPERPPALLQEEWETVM
# The whole screen tested about 410,000 compounds, of which about 310 (0.076%) were called active. This list was built around the results that the source calls inconclusive (neither active nor inactive); the mix of calls is not that of the screen. Calls follow the shape of the dose curve; as a rule, active = well fitted activation curve with a large enough effect; inconclusive = small, poorly fitted or top-dose-only effect, or another doubt; inactive = no such curve, though single readings can be large or run the other way. Where the call is inconclusive, the potency comes from a doubtful curve fit. Residues, ends and D or L forms follow the SMILES beside them. *: point of attachment. OBn = c1ccc(CO*)cc1
# Target: Parathyroid hormone/parathyroid hormone-related peptide receptor (Homo sapiens) (UniProt Q03431)
# Experiment: qHTS for PTHR1 Agonists: Primary Screen; also: nearly all actives have a fitted effect of over 55% in size
# Details: HEK293 GP2 PTHR1 cells, GloSensor cAMP luminescence, 1 h; activation: at 115 µM (top of the series) unless noted; series mostly up to 115 µM
# Method in brief: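 HEK-293-derived GP2 cells expressing PTHR1 and a GloSensor cAMP reporter, 3,000/well, plated overnight, given luciferin plus IBMX (each 0.5 mM as added) for 1 h at 37 °C, then compound for 1 h at 37 °C. Luminescence was read after 15 min at room temperature.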
# Potency is read from the fitted curve at half-maximal effect.
Compound,Potency,activation,outcome
O=C(CSc1nnc(Cc2ccccc2)n1-c1ccc(Cl)cc1)N1CCOCC1,"inconclusive: 39.8 µM [activator, single point]",,
CCc1nc2ccc(C(=O)N(CC)CC(=O)Nc3c(F)cccc3F)cc2nc1CC,,inconclusive: 39.5% [activator],
C=CCNc1nc(N)c([N+](=O)[O-])c(Nc2cccc(Cl)c2)n1,"inconclusive: 158 µM [activator, single point]",,
CC1CCCN(S(=O)(=O)c2ccc(S(=O)(=O)NC(C)c3cccs3)cc2)C1 (centres undefined),,,inactive
CCOc1ccc(NC(=O)N2CCN(S(C)(=O)=O)CC2)cc1,,inconclusive: 79.2% [activator],
CN1CCN(c2ccc(S(=O)(=O)N3CCOCC3)cc2NC(=O)CC(C)(C)C)CC1,"inconclusive: 89.1 µM [activator, partial curve, poor fit]",,
COc1ccc(-c2cc(C(F)(F)F)nc(SCC(=O)NCc3ccc(F)cc3)n2)cc1,,inactive: -15%,
Cc1cc(C)cc(C(=O)Nc2ccc(-c3cn4cccnc4n3)cc2)c1,"inconclusive: 126 µM [activator, single point]",,
COc1ccc(NC(=O)N2CCc3c(sc4c3CCCC4)C2c2ccc(F)cc2)cc1 (centres undefined),,inactive: -20.8%,
CCOC(=O)c1cnn(-c2c(Cc3ccccc3)c(C)nc3c(-c4ccccc4)c(C)nn23)c1N,,inconclusive: 37.1% [activator] [at 57.5 µM],
O=C(O)C1CCCCC1C(=O)NCc1ccccc1 (centres undefined),"inconclusive: 1.41 µM [activator, full curve, poor fit]",,
CCN(CC#CCC1(O)c2ccccc2-c2ccccc21)CCO,,inactive: -24.4% [at 57.5 µM],
CC(C)CN(c1ccccc1)S(=O)(=O)c1nnc(NC(=O)c2ccco2)s1,,inconclusive: -63.6% [activator],
Cc1cccc(C(=O)Nc2ccccc2-c2nc(-c3ccccc3)no2)c1,"inconclusive: 126 µM [activator, single point]",,
Cc1ccc(C)c(CN2C(=O)c3ccccc3S(=O)(=O)c3ccc(C(=O)N4CCN(Cc5ccccc5)CC4)cc32)c1,"inconclusive: 141 µM [activator, single point]",,
CC(=O)c1cc(-c2ccccc2)n(CC(=O)N2CCCCC2)c1C,"inconclusive: 1.41 µM [activator, full curve]",,
CCC(=O)N1CCC1(C)C(=O)Nc1cccc(Oc2ccccc2)c1 (centres undefined),"inconclusive: 39.8 µM [activator, partial curve, poor fit]",,
O=C(NCc1ccc(-c2csnn2)cc1)c1cccs1,,inactive: -18%,
CC(NC(=O)c1c(O)nc2ccccn2c1=O)c1ccccc1 (centres undefined),"inconclusive: 15.8 µM [activator, partial curve, poor fit]",,
CCOc1ccc2nc(N(CCCN(C)C)C(=O)c3ccc4c(c3)CCCC4)sc2c1,,inconclusive: 50.7% [activator],
C=CCn1ccc(=O)nc1SC,"inconclusive: 31.6 µM [activator, single point]",,
c1ccc(Cn2nnnc2C(c2cccs2)N2CCc3ccccc3C2)cc1 (centres undefined),,,inactive [at 57.5 µM]

Compound,Potency,activation,outcome
CN1c2ccccc2C(O)=C(C(=S)Nc2ccc(F)c(Cl)c2)S1(=O)=O,,inactive: -40.3%,
CSCCC(NC(=O)c1ccccc1)C(=O)NNC(=O)c1ccccc1 (centres undefined),"inconclusive: 141 µM [activator, single point]",,
CCC(C)C(NC(=O)C(N)CC(C)C)C(=O)NC(CCC(=O)OCc1ccccc1)C(N)=O (stereo not drawn) (H-Leu-Ile-Glu(OBn)-NH2; configuration not given here),"inconclusive: 39.8 µM [activator, single point]",,
COCCNC(=O)c1ccc(C)c(NC(=O)C2=C(C)OCCS2)c1,"inconclusive: 158 µM [activator, single point]",,
CCN1CCN(c2ccc(Cl)cc2NC(=O)c2ccco2)CC1,"inconclusive: 1 µM [activator, full curve, poor fit]",,
CCc1ccc(NC(=O)Cc2cn(C)c3ccccc23)cc1,"inconclusive: 3.55 µM [activator, partial curve, poor fit]",,
COc1c(OC(C)=O)ccc(/C=C/c2ccc3ccccc3n2)c1[N+](=O)[O-],,inactive: -36.8% [at 57.5 µM],
O=C(NCc1cc([N+](=O)[O-])ccc1O)c1cccnc1Sc1ccccc1Cl,,inconclusive: -77.1% [activator],
COc1ccc(OCCC(=O)NCCN2CCOCC2)cc1,"inconclusive: 141 µM [activator, single point]",,
Cc1ccc(NC(=O)CCc2nnc3n(CC(C)C)c(=O)c4ccccc4n23)cc1C,,inactive: -12.2%,
O=C(O)C1CCCCC1C(=O)Nc1nc(-c2ccc(Cl)s2)cs1 (centres undefined),"inconclusive: 4.47 µM [activator, full curve]",,
CCCCCCC1C(C#N)=C(N)OC2=C1C(=O)CC(C)(C)C2 (centres undefined),,,inactive
O=C(Cn1nnc(-c2ccc(CN3CCOCC3)cc2)n1)N(c1ccccc1)c1ccccc1,"inconclusive: 15.8 µM [activator, full curve, poor fit]",,
C[C@@H]1COC(=O)CCC/C=C\C[C@@H](CC(=O)N(CCO)Cc2ccccc2)C(=O)N1,,inactive: -4.37%,
CCCOC(=O)c1ccc(NC(=O)c2cc(OC)c(OC)c(OC)c2Br)cc1,,inactive: -27.6%,
Cc1ccc(SCc2cn3c(C)csc3n2)cc1,,inconclusive: -64.4% [activator] [at 57.5 µM],
COc1cccc(NC(=O)CN(C)C(=O)CC2CCCCC2)c1,,,inactive
COC(=O)c1cc(OC)c(OC)c(OC)c1NC(=O)c1ccc(S(=O)(=O)N(C)C)cc1,,inactive: 9.8% [at 57.5 µM],
O=C(O)CCCCc1nc2ccccc2s1,,inconclusive: 28.3% [activator] [at 57.5 µM],
COc1cccc(NC(=O)CN(C)C(=O)Cc2n[nH]c(=O)c3ccccc23)c1,"inconclusive: 39.8 µM [activator, partial curve, poor fit]",,
N=C(CC1CC(=O)NC(=O)C1)C1=C(O)CCCC1=O,"inconclusive: 20 µM [activator, partial curve, poor fit]",,
COCc1c(Br)c(C)nc2sc3c(=O)[nH]nnc3c12,"inconclusive: 44.7 µM [activator, partial curve, poor fit]",,
